The record followed here is paper doi:10.1101/2022.05.16.492129.

The chains behind the UniProt entries cited, without tags or fusion partners. Residues count along the entry.
UniProt Q6PDJ1, residues 50-1107: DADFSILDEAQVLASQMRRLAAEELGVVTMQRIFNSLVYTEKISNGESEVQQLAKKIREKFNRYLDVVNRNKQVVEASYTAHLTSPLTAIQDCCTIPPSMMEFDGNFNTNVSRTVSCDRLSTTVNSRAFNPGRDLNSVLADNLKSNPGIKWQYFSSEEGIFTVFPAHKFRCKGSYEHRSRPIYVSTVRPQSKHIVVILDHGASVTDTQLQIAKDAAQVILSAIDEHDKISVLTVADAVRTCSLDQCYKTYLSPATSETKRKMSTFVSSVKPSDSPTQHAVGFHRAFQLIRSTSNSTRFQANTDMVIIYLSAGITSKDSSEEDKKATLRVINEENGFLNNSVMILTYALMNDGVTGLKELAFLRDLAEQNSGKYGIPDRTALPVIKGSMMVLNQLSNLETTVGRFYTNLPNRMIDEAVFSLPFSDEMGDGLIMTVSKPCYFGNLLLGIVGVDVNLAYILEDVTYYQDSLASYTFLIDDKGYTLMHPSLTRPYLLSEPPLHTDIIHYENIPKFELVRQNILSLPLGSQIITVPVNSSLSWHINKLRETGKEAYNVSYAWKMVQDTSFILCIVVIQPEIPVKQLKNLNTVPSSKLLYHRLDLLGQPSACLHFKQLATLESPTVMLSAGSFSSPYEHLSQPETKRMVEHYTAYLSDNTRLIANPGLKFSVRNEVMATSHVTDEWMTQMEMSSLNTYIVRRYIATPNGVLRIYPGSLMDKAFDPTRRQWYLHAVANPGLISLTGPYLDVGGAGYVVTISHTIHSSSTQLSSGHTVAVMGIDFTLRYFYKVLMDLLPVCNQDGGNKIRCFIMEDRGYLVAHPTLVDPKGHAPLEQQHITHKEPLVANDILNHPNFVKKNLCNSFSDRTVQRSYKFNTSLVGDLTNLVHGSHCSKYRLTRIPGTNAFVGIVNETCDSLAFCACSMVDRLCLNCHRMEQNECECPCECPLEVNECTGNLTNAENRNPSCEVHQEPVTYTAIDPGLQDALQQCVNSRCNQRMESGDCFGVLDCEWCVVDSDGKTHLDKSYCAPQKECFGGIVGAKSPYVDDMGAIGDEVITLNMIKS

In assay [1] the target is T1, mouse FZD5 cysteine rich domain (FZD5CRD), for crystallography (mouse) (UniProt Q9EQD0).
T1 sequence: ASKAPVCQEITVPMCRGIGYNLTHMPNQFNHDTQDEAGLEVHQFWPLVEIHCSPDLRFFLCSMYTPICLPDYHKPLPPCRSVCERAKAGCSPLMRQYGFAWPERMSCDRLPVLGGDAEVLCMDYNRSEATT
As to the kind of experiment: crystal structure.

Assay [2] addresses T1, mouse FZD5 cysteine rich domain (FZD5CRD), for crystallography (mouse). As to the kind of experiment: crystal structure. The source holds these as a separate data set.

Read-outs that look alike come from different tables or passages of the source. Results are given in words; binding and its absence hold for the method and conditions named. Some binding calls cover weakened binding; strength is not graded here.

In the case of “mouse Cachd1 extracellular domain (CACHD1ECD) (from UniProt Q6PDJ1 50-1107) (domain or fragment)”, the binding entry in assay [1] and in assay [2] was “binds” throughout.
